Read-outs that look alike come from different tables or passages of the source. No constants are given. Whether binding was seen depends on the method and setting. In cells and extracts the contact can be indirect. Some entries that bind do so weakly or less than the wild type.

Sequences of proteins named here, by UniProt entry; tags and fusion partners are left off.
UniProt Q9UGL1: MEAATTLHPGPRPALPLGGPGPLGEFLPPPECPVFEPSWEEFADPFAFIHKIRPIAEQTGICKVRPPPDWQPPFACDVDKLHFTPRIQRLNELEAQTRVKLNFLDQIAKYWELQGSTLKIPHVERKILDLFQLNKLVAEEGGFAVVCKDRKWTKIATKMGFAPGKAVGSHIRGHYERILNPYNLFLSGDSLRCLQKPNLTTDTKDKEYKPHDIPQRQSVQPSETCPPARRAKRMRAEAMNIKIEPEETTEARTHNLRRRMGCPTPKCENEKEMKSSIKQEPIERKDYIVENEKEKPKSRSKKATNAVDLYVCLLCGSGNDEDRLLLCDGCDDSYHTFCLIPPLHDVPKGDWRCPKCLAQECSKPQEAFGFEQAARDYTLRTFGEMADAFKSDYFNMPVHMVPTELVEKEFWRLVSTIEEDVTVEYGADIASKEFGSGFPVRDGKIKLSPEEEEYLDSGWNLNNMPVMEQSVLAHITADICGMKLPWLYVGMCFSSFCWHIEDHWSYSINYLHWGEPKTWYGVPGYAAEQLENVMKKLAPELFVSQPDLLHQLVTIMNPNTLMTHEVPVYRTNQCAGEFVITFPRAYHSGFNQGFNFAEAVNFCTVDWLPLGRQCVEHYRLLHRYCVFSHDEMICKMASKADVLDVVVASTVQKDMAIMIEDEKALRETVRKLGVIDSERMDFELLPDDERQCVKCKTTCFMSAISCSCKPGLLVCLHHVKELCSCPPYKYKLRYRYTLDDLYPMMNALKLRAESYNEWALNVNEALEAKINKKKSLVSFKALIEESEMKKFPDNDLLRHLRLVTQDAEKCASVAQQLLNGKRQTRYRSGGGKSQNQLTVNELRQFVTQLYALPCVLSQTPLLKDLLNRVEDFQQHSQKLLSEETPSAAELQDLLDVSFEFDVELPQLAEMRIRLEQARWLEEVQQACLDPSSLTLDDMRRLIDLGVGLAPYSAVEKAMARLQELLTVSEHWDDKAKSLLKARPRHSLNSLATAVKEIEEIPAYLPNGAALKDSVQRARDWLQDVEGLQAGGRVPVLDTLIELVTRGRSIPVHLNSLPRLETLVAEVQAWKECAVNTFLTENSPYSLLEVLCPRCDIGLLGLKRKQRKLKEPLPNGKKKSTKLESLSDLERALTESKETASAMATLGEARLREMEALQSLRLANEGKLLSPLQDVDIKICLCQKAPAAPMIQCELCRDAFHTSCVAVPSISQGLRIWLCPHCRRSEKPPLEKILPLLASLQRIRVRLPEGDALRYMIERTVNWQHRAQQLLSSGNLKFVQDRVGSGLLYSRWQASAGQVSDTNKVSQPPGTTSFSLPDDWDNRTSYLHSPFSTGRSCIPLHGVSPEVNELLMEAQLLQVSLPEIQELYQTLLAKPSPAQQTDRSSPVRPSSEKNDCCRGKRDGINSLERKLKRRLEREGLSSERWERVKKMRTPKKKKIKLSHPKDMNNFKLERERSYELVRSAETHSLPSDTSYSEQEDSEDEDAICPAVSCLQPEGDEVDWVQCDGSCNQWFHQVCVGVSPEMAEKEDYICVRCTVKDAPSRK
UniProt Q01094: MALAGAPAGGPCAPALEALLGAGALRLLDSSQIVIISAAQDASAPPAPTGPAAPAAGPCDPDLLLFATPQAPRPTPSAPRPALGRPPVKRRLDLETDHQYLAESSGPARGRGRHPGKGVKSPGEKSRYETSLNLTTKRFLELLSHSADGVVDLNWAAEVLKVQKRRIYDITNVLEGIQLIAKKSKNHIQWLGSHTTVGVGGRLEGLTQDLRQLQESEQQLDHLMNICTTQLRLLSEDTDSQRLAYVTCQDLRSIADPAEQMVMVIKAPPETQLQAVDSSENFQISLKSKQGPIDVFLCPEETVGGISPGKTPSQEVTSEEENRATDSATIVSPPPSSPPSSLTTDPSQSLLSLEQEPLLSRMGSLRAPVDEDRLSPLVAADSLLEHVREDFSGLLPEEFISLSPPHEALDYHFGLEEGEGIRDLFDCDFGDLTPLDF
UniProt Q09472: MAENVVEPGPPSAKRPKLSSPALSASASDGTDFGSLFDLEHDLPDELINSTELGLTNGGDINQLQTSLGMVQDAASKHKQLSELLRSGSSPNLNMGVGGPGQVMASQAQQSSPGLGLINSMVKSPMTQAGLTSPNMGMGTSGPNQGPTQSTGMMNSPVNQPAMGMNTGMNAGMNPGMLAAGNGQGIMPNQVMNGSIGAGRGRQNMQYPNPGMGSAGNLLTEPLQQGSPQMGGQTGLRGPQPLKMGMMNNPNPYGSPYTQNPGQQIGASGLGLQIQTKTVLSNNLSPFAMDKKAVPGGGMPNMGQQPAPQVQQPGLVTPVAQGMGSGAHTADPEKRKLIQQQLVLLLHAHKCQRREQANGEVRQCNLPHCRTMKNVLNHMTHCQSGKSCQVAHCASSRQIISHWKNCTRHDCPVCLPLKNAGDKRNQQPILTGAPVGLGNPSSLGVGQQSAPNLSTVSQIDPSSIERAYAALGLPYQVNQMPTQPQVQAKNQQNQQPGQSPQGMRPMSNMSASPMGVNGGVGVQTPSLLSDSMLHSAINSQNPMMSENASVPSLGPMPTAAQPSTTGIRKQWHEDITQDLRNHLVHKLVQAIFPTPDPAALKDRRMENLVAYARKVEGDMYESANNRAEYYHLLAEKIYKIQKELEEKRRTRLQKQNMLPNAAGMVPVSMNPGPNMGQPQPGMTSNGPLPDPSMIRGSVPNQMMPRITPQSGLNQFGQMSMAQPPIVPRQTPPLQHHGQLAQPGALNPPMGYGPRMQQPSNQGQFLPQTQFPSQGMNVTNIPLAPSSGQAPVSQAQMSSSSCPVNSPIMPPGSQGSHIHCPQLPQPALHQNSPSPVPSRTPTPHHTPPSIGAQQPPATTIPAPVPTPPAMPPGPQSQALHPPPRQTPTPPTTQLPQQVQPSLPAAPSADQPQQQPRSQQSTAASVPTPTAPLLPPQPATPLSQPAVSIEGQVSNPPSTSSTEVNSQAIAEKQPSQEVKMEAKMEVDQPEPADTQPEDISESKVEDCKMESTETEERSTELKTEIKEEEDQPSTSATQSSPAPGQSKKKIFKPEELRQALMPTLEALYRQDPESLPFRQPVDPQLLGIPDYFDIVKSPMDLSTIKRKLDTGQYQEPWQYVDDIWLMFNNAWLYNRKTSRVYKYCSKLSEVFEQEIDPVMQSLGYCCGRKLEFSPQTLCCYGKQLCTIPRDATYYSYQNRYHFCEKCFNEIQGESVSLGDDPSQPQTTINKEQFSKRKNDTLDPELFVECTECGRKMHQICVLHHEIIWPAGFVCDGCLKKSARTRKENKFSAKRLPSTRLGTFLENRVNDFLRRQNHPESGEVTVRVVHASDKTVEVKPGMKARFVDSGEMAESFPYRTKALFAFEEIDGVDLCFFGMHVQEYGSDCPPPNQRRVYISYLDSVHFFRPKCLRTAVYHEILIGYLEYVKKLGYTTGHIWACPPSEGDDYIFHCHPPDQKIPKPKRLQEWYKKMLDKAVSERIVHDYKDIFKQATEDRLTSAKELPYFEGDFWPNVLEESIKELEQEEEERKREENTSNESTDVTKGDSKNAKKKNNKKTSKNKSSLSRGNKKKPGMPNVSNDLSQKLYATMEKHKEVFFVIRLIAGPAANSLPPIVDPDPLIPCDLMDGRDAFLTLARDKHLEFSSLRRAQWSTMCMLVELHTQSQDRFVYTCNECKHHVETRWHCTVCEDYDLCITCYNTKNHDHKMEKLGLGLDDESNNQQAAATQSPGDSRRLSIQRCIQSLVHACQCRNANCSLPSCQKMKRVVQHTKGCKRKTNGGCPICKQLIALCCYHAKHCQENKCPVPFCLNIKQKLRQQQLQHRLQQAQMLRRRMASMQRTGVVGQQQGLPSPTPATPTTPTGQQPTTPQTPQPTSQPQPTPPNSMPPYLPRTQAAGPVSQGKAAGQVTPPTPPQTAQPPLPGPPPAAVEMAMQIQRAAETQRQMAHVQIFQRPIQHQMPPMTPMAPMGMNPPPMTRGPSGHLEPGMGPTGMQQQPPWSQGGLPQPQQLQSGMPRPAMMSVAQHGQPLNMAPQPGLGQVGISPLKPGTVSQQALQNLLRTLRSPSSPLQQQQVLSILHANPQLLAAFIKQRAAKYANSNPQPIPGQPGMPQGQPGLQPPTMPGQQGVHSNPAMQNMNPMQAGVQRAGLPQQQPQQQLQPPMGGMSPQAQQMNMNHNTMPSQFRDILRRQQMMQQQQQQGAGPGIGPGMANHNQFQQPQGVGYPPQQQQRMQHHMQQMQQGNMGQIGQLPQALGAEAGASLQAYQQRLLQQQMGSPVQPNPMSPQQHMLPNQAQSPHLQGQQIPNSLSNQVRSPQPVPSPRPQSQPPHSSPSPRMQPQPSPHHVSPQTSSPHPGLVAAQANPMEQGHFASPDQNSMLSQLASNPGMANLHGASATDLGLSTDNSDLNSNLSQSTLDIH

Test in all cases: co-IP
Assay [1] deals with KDM5B (human (endogenous in MCF7, K562 and A549)) (UniProt Q9UGL1).
Assay [2] has the same target. This is another data set of the same source.
Assay [3] has as its target E2F1 (human (endogenous in MCF7)) (UniProt Q01094).

“Tumor suppressor p53 (from UniProt P04637 1-393)”: the binding result in assay [1] and in assay [2] was “binds” each time.

Regarding “p300 (from UniProt Q09472 1-2414) (enzyme)”, the binding result in assay [1], in assay [3] and in assay [2] was “binds” in each case.

The values above are taken from article doi:10.1101/2025.08.25.672089.
